The whole screen tested about 360,000 compounds, of which about 10,000 (2.8%) were called active. The inconclusive results got no clear call from the source; some entries with a clear call stand among them for comparison. The call rests on the fitted dose curve; in most records, active means well fitted inhibition curve with a large enough effect; inconclusive means small, poorly fitted or top-dose-only effect; inactive means flat fitted curve, though single readings scatter. Potencies of inconclusive entries are doubtful fits and often do not repeat.
The compounds below were run against Serine/threonine-protein kinase PLK1 (Homo sapiens) (UniProt P53350) (assay: qHTS for Inhibitors of PLK1-PDB (polo-like kinase 1 - polo-box domain): Primary Screen). Conditions: Plk1 PBD binding of FITC phosphopeptide, fluorescence polarization.
Further: nearly all actives have a fitted effect of over 65% in size.
On the % scale 0 is the no-effect control and ±100 the full control effect; potency means the concentration at half of the fitted maximal effect.
Wherever max response, negative = inhibition is given: series mostly up to about 57 µM.

Amino acid sequences for entries named in this document (tags omitted).
UniProt P53350, whole entry, looked up: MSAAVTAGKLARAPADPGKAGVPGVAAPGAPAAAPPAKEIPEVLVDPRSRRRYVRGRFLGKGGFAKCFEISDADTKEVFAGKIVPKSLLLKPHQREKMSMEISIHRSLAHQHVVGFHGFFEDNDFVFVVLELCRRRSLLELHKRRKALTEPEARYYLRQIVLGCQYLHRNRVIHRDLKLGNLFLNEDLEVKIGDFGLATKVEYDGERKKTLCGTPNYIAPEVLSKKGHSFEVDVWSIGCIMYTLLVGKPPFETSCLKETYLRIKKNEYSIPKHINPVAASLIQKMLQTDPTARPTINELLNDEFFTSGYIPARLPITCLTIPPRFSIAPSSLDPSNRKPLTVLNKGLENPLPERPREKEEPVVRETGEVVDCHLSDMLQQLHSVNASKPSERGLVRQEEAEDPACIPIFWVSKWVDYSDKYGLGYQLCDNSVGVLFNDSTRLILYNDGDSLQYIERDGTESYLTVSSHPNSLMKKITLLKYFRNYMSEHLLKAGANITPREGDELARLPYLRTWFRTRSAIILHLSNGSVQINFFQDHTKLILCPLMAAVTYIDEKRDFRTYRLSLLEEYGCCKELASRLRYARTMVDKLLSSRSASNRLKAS

| SMILES | Potency | max response, negative = inhibition |
| --- | --- | --- |
| Cc1ccc2c(CSc3nncn3C)cc(=O)oc2c1C | inconclusive: 37.7 µM [inhibitor, single point] |  |
| Nc1cc(=O)[nH]c(SCC(=O)Nc2ccc([N+](=O)[O-])cc2)n1 | inconclusive: 21.2 µM [inhibitor, partial curve] |  |
| Cc1ccc(NC(=O)COc2ccc(/C=N\NC(=O)c3cccnc3)cc2)cc1C |  | inconclusive: -34.9% [inhibitor] |
| Cc1cccc(N2CCN(S(=O)(=O)c3ccc4c(c3)NC(=O)CO4)CC2)c1C | active: 26.7 µM |  |
| Cn1c(=O)c2cc(NC(=S)NC3CC3)ccc2n1C/C=C/c1ccccc1 | inconclusive: 29.9 µM [inhibitor, single point] |  |
| COc1ccccc1NC(=O)c1cc(S(=O)(=O)N2CCCC2)cn1C |  | inactive: -14.2% |
| Cc1csc(NC(=O)CSCC(=O)O)c1-c1nc2ccccc2s1 | inconclusive: 21.2 µM [inhibitor, single point] |  |
| NS(=O)(=O)c1ccc(NC(=O)c2ccc(F)cc2F)c(NC(=O)c2ccc(F)cc2F)c1 |  | inactive: -2.35% |
| CCc1nnc(NC(=O)CN2CCN(c3nc(-c4ccccc4)cs3)CC2)s1 |  | inactive: -10.8% |
| O=c1[nH]c(=O)n(Cc2ccccc2)c2c1C(C(F)(F)F)(C(F)(F)F)N=C(c1ccco1)N2 |  | inactive: 0.0503% |
| Oc1c(I)cc(I)c2cccnc12 | inconclusive: 23.8 µM [inhibitor, single point] |  |
| COc1ccc(C2(O)CN(c3ccccc3)C3=[N+]2CCS3)cc1OC (centres undefined) |  | inactive: -0.788% |
| Cn1nc([N+](=O)[O-])c(C(C#N)c2nc3ccccc3n2C)c(Cl)c1=O (centres undefined) | inconclusive: 23.8 µM [inhibitor, partial curve] |  |
| O=C(Nc1ccc2[nH]c(=S)sc2c1)c1ccccc1 | inconclusive: 16.8 µM [inhibitor, partial curve] |  |
| CC1(c2nnc(Cc3ccccc3)o2)CC(c2ccc(C#N)cc2)=NO1 (centres undefined) |  | inconclusive: -22.8% [inhibitor] |
| CCCc1nnc(NC(=O)Cn2c(=O)sc3ccccc32)s1 | inconclusive: 29.9 µM [inhibitor, partial curve] |  |
| CCCCCC(=O)Nc1nc(C)c(-c2csc(Nc3cc(Cl)ccc3OC)n2)s1 | inconclusive: 6.7 µM [inhibitor, single point] |  |
| Cc1nnc(CN(C)Cc2cn[nH]c2-c2ccc(-c3ccccc3)cc2)o1 | inconclusive: 37.7 µM [inhibitor, single point] |  |
| O=C(NCC(O)c1ccc([N+](=O)[O-])cc1)C1=COCCO1 (centres undefined) |  | inactive: -3.63% |
| O=[N+]([O-])c1ccc(Oc2cccc3cccnc23)c([N+](=O)[O-])c1 | inconclusive: 42.3 µM [inhibitor, partial curve, poor fit] |  |
| COc1ccccc1-c1cc(C(F)(F)F)nc(S(=O)(=O)CCCC(=O)N2CCCCC2C)n1 (centres undefined) | inconclusive: 29.9 µM [inhibitor, partial curve] |  |
| O=C(CSc1nnc(-c2cccnc2)o1)Nc1ccc(F)cc1 | inconclusive: 21.2 µM [inhibitor, partial curve] |  |
| Cc1cccc2c1N(C)C(=O)C2=O | inconclusive: 29.9 µM [inhibitor, single point] |  |

| SMILES | Potency | max response, negative = inhibition |
| --- | --- | --- |
| Cc1[nH]c(=S)c(C#N)c(-c2ccccc2)c1C(=O)Nc1ccccc1 | inconclusive: 29.9 µM [inhibitor, single point] |  |
| O=C1ON=C(c2ccccc2[N+](=O)[O-])/C1=C/c1cccc([N+](=O)[O-])c1O | inconclusive: 84.4 µM [inhibitor, single point] |  |
| COc1ccc(NC(=O)Cc2c(C(=O)O)n(C)c3ccccc23)cc1OC | inconclusive: 18.9 µM [inhibitor, partial curve] |  |
| CC(C)Cc1n[nH]c(=O)[nH]1 | inconclusive: 29.9 µM [inhibitor, single point] |  |
| CCOC(=O)c1c(S(=O)(=O)Nc2cccc(Cl)c2)c(C)n(C)c1C | inconclusive: 29.9 µM [inhibitor, partial curve] |  |
| COC(=O)c1cc(NC(=O)c2ccc(OC)cc2)c(=O)oc1C | inconclusive: 21.2 µM [inhibitor, single point] |  |
| Cc1cc(C(=O)COC(=O)c2ccc[nH]c2=O)c(C)n1-c1ccccc1F |  | inactive: -2.34% |
| Clc1ccc(CO/N=C2\CCCc3nonc32)cc1 | active: 21.2 µM |  |
| N#CCSc1nccc(/C=C/c2ccccc2)n1 | inconclusive: 29.9 µM [inhibitor, single point] |  |
| Cn1c(N)c(C(=O)COC(=O)COc2cc(Cl)c(Cl)cc2Cl)c(=O)n(C)c1=O |  | inactive: -5.34% |
| COc1ccccc1-c1nnc(N)s1 | inconclusive: 33.6 µM [inhibitor, single point] |  |
| COCCn1c(C)cc(C(=O)CSc2ccc(NC(C)=O)cc2)c1C | inconclusive: 26.7 µM [inhibitor, single point] |  |
| COc1ccc(-c2c(C)nn3c(C)cc(C)nc23)cc1 | inconclusive: 16.8 µM [inhibitor, partial curve] |  |
| COc1cc(CNc2ccc3c(c2)CCC3)cc(OC)c1O | inconclusive: 8.44 µM [inhibitor, partial curve] |  |
| Cc1oc(-c2ccc3c(c2)OCCO3)cc1C(=O)NCC(=O)O | inconclusive: 21.2 µM [inhibitor, single point] |  |
| Cc1ccc2cc(CN(c3ccccc3C)S(=O)(=O)c3ccccc3)c(=O)[nH]c2c1 | inconclusive: 23.8 µM [inhibitor, partial curve] |  |
| COc1cc(C)ccc1OCCOc1c(Cl)cc(Cl)cc1Cl |  | inactive: -3.6% |
| CC1CCCC(=C\c2ccccc2)/C1=N/O (centres undefined) | active: 26.7 µM |  |
| Cc1ccc(C(=O)Nc2nc(-c3cccnc3)cs2)o1 | inconclusive: 23.8 µM [inhibitor, partial curve] |  |
| COC(=O)[C@@]1(Cc2ccc(F)cc2)[C@H]2c3cc(C(=O)N(C)C)n(CCc4c[nH]c5ccc(OC)cc45)c3C[C@H]2CN1C(=O)c1ccccc1 |  | inactive: -0.876% |
| Cc1ccc(C(=O)NNC(=O)CSc2nnc3c(n2)[nH]c2ccc(F)cc23)cc1 | inconclusive: 10.6 µM [inhibitor, partial curve] |  |
| CCN1C(=O)[C@H]2[C@H]3CN=C(SCc4ccc(Cl)cc4)N3[C@@](Cc3ccccc3)(C(=O)OC)[C@H]2C1=O |  | inactive: -8.39% |
| N#CC1=C(N)SC2(CCCCC2)SC1c1ccccc1 (centres undefined) | active: 21.2 µM |  |

A portion from further up, for reference:

| SMILES | Potency | max response, negative = inhibition |
| --- | --- | --- |
| COc1cc(C)ccc1OCCOc1c(Cl)cc(Cl)cc1Cl |  | inactive: -3.6% |
| CC1CCCC(=C\c2ccccc2)/C1=N/O (centres undefined) | active: 26.7 µM |  |
| Cc1ccc(C(=O)Nc2nc(-c3cccnc3)cs2)o1 | inconclusive: 23.8 µM [inhibitor, partial curve] |  |

Following part

| SMILES | Potency | max response, negative = inhibition |
| --- | --- | --- |
| CCOc1cccc(C2C(C(=O)c3ccco3)=C(O)C(=O)N2Cc2ccncc2)c1 (centres undefined) |  | inactive: 0.391% |
| CCOc1cc(C(N)=O)cc(Br)c1OC | active: 29.9 µM |  |
| O=C(Nc1ccc(F)cc1)C(c1cccc(F)c1)N1CCN(C(=O)c2ccco2)CC1 (centres undefined) |  | inactive: -4.54% |
| C[C@@H]1CN([C@@H](C)CO)S(=O)(=O)c2ccc(Br)cc2O[C@H]1CN(C)Cc1ccncc1 | inconclusive: 8.44 µM [inhibitor, single point] |  |
| Cc1ccc(NC(=O)CN2C(=O)S/C(=C\c3cc(C)n(-c4ccc(C(=O)O)cc4)c3C)C2=O)cc1 | active: 26.7 µM |  |
| CCCCCOCC1CC(C/C(C)=N/Nc2nc(-c3ccccc3)cs2)C(=O)O1 (centres undefined) | active: 21.2 µM |  |
| Cc1nnc(NC(=O)c2nc(S(=O)(=O)Cc3ccccc3C)ncc2Cl)s1 | inconclusive: 21.2 µM [inhibitor, single point] |  |
| CCn1c(CCNC(=O)c2cccs2)nnc1SCC(=O)Nc1nc(-c2ccccc2)cs1 |  | inactive: -5.24% |
| Cc1cccc(C)c1NC(=O)CSc1nnc(Cc2ccccc2)o1 | inconclusive: 26.7 µM [inhibitor, partial curve] |  |
| COc1cc(/C=C2\SC(=S)N(NS(=O)(=O)c3ccc(C)cc3)C2=O)cc(OC)c1OC | inconclusive: 29.9 µM [inhibitor, partial curve] |  |
| CN(CC(=O)NCc1ccc(Cl)cc1)S(=O)(=O)c1cccc2cccnc12 | inconclusive: 26.7 µM [inhibitor, single point] |  |
| O=C(Nc1cc(C(F)(F)F)ccc1Cl)C(Sc1nnc(-c2cccs2)o1)c1ccccc1 (centres undefined) |  | inconclusive: -30.9% [inhibitor] |
| Cc1cc(C)c2c(N=NN(C)C)[nH]nc2n1 | inconclusive: 26.7 µM [inhibitor, single point] |  |
| Cc1cc(=O)c2cc(C(=O)c3ccccc3)ccc2[nH]1 |  | inactive: -14.4% |
| Cc1ccc(SCC(=O)Nc2cc(C)on2)cc1 | inconclusive: 18.9 µM [inhibitor, partial curve] |  |
| Cc1cc(/C=C2\SC(N)=NC2=O)c(C)n1-c1ccc(F)cc1 |  | inconclusive: -34.9% [inhibitor] |
| Nc1nc(-c2ccc(Cl)cc2)cn1N | inconclusive: 29.9 µM [inhibitor, single point] |  |
| Cc1cc(=O)[nH]c(NN)n1 | inconclusive: 37.7 µM [inhibitor, partial curve] |  |
| CC(C)C/C(O)=C/c1nc2cc(Cl)ccc2oc1=O |  | inactive: -7.43% |
| O=C(CCn1c(=O)oc2ccccc21)Nc1ccccc1 | inconclusive: 21.2 µM [inhibitor, partial curve] |  |
| CCN(CC)C(=O)[C@H]1C[C@H](CC(=O)NCCCn2ccnc2)C(=O)N2CCc3c([nH]c4cc(-c5ccco5)ccc34)[C@]12C | inconclusive: 21.2 µM [inhibitor, partial curve] |  |
| O=C(Cc1cccs1)NCc1ccccc1Br |  | inactive: -3.21% |
| NC(=S)N1N=C(c2ccccc2)CC1=O |  | inactive: -1.15% |

Reference: PubChem BioAssay AID720504 (National Center for Advancing Translational Sciences (NCATS), 2013)
